The other results are listed elsewhere or left out.
How the values were obtained:
Test in all cases: glycan array binding signal (z-score within array); higher = stronger binding
Conditions in all cases: glycan notation: IUPAC condensed, linker removed
[1] = molecular target: Neu5Ac(a2-3)Gal(b1-3)]Neu5Ac(a2-3)Gal(b1-4)]GlcNAc
Procedure, shortened: (§1)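 Glycan array data were curated from 3228 arrays in the Consortium for Functional Glycomics database and kept only where the protein sequence was available. Glycan names were converted to IUPAC-condensed notation, and columns mapping to the same glycan were averaged. The binding signal is a within-array Z-score, averaged across arrays of the same protein sequence at different concentrations or buffers and across linkers. Negative Z-scores can be read as non-binding.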

Neu5Ac(a2-3)Gal(b1-4)Glc = molecular target: Neu5Ac(a2-3)Gal(b1-4)Glc
Procedure, shortened: as §1

[2] = molecular target: Neu5Ac(a2-3)Gal(b1-4)GlcNAc
Procedure, shortened: as §1

[3] = molecular target: Neu5Ac(a2-3)Gal(b1-4)GlcNAc(b1-2)Man
Procedure, shortened: as §1

[4] = molecular target: Neu5Ac(a2-3)Gal(b1-4)GlcNAc(b1-2)Man(a1-3)[GlcNAc(b1-4)][Neu5Ac(a2-3)Gal(b1-4)GlcNAc(b1-2)Man(a1-6)]Man(b1-4)GlcNAc(b1-4)GlcNAc
Procedure, shortened: as §1

[5] = molecular target: Neu5Ac(a2-3)Gal(b1-4)GlcNAc(b1-2)Man(a1-3)[Neu5Ac(a2-3)Gal(b1-4)GlcNAc(b1-2)Man(a1-6)]Man(b1-4)GlcNAc(b1-4)GlcNAc
Procedure, shortened: as §1

[6] = molecular target: Neu5Ac(a2-3)Gal(b1-4)GlcNAc(b1-2)Man(a1-3)[Neu5Ac(a2-3)Gal(b1-4)GlcNAc(b1-2)Man(a1-6)]Man(b1-4)GlcNAc(b1-4)[Fuc(a1-6)]GlcNAc
Procedure, shortened: as §1

[7] = molecular target: Neu5Ac(a2-3)Gal(b1-4)GlcNAc(b1-2)Man(a1-3)[Neu5Ac(a2-6)Gal(b1-4)GlcNAc(b1-2)Man(a1-6)]Man(b1-4)GlcNAc(b1-4)GlcNAc
Procedure, shortened: as §1

[8] = molecular target: Neu5Ac(a2-3)Gal(b1-4)GlcNAc(b1-2)[Neu5Ac(a2-3)Gal(b1-4)GlcNAc(b1-4)]Man(a1-3)[GlcNAc(b1-4)][Neu5Ac(a2-3)Gal(b1-4)GlcNAc(b1-2)[Neu5Ac(a2-3)Gal(b1-4)GlcNAc(b1-6)]Man(a1-6)]Man(b1-4)GlcNAc(b1-4)GlcNAc
Procedure, shortened: as §1

[9] = molecular target: Neu5Ac(a2-3)Gal(b1-4)GlcNAc(b1-2)[Neu5Ac(a2-3)Gal(b1-4)GlcNAc(b1-4)]Man(a1-3)[GlcNAc(b1-4)][Neu5Ac(a2-3)Gal(b1-4)GlcNAc(b1-4)Man(a1-6)]Man(b1-4)GlcNAc(b1-4)GlcNAc
Procedure, shortened: as §1

[10] = molecular target: Neu5Ac(a2-3)Gal(b1-4)GlcNAc(b1-2)[Neu5Ac(a2-3)Gal(b1-4)GlcNAc(b1-6)]Man(a1-6)[Neu5Ac(a2-3)Gal(b1-4)GlcNAc(b1-2)Man(a1-3)][GlcNAc(b1-4)]Man(b1-4)GlcNAc(b1-4)GlcNAc
Procedure, shortened: as §1

[11] = molecular target: Neu5Ac(a2-3)Gal(b1-4)GlcNAc(b1-3)Gal
Procedure, shortened: as §1

[12] = molecular target: Neu5Ac(a2-3)Gal(b1-4)GlcNAc(b1-3)Gal(b1-3)GlcNAc
Procedure, shortened: as §1

[13] = molecular target: Neu5Ac(a2-3)Gal(b1-4)GlcNAc(b1-3)Gal(b1-4)GlcNAc
Procedure, shortened: as §1

[14] = molecular target: Neu5Ac(a2-3)Gal(b1-4)GlcNAc(b1-3)Gal(b1-4)GlcNAc(b1-2)Man(a1-3)[Neu5Ac(a2-3)Gal(b1-4)GlcNAc(b1-3)Gal(b1-4)GlcNAc(b1-2)Man(a1-6)]Man(b1-4)GlcNAc(b1-4)GlcNAc
Procedure, shortened: as §1

[15] = molecular target: Neu5Ac(a2-3)Gal(b1-4)GlcNAc(b1-3)Gal(b1-4)GlcNAc(b1-3)Gal(b1-4)GlcNAc
Procedure, shortened: as §1

[16] = molecular target: Neu5Ac(a2-3)Gal(b1-4)GlcNAc(b1-3)Gal(b1-4)GlcNAc(b1-3)Gal(b1-4)GlcNAc(b1-2)Man(a1-3)[Neu5Ac(a2-3)Gal(b1-4)GlcNAc(b1-3)Gal(b1-4)GlcNAc(b1-3)Gal(b1-4)GlcNAc(b1-2)Man(a1-6)]GalNAc
Procedure, shortened: as §1

[17] = molecular target: Neu5Ac(a2-3)Gal(b1-4)GlcNAc(b1-3)Gal(b1-4)GlcNAc(b1-3)GalNAc
Procedure, shortened: as §1

[18] = molecular target: Neu5Ac(a2-3)Gal(b1-4)GlcNAc(b1-3)Gal(b1-4)GlcNAc(b1-3)[Neu5Ac(a2-3)Gal(b1-4)GlcNAc(b1-3)Gal(b1-4)GlcNAc(b1-6)]GalNAc
Procedure, shortened: as §1

[19] = molecular target: Neu5Ac(a2-3)Gal(b1-4)GlcNAc(b1-3)Gal(b1-4)GlcNAc(b1-6)[Gal(b1-3)]GalNAc
Procedure, shortened: as §1

[20] = molecular target: Neu5Ac(a2-3)Gal(b1-4)GlcNAc(b1-3)Gal(b1-4)[Fuc(a1-3)]GlcNAc
Procedure, shortened: as §1

[21] = molecular target: Neu5Ac(a2-3)Gal(b1-4)GlcNAc(b1-3)GalNAc
Procedure, shortened: as §1

[22] = molecular target: Neu5Ac(a2-3)Gal(b1-4)GlcNAc(b1-3)[Neu5Ac(a2-3)Gal(b1-4)GlcNAc(b1-6)]GalNAc
Procedure, shortened: as §1

B1: Pwp1 (Candida glabrata) (protein)
chain: MGSSHHHHHHSSGLVPRGSHMASANPISITNVCQFPDNWARTAGFQATTVRLGLTIASNTYKELLNYPGLFNFATQKATVTQPNFSISGFPFFTGLYGLTVWPINLLVELQGYFVPPESGNYTFTLQGSDDAAILFFANPSTFACGSQNDWPQPREADITVTDTLVPSRTLYLVKGVAYPIRIAYYNGSGDGKLNVSFKDPSGTTHTDWKGYVWQYSNTCSTCTYT
- glycan array binding signal (z-score) [1]: -0.801
- glycan array binding signal (z-score) (Neu5Ac(a2-3)Gal(b1-4)Glc): -0.115
- glycan array binding signal (z-score) [2]: -0.118
- glycan array binding signal (z-score) [3]: 0.55
- glycan array binding signal (z-score) [4]: 0.469
- glycan array binding signal (z-score) [5]: -2.28
- glycan array binding signal (z-score) [6]: 0.747
- glycan array binding signal (z-score) [7]: -0.498
- glycan array binding signal (z-score) [8]: -1.42
- glycan array binding signal (z-score) [9]: 0.354
- glycan array binding signal (z-score) [10]: 2.29
- glycan array binding signal (z-score) [11]: -0.925
- glycan array binding signal (z-score) [12]: -0.345
- glycan array binding signal (z-score) [13]: 1.27
- glycan array binding signal (z-score) [14]: -1.69
- glycan array binding signal (z-score) [15]: -1.57
- glycan array binding signal (z-score) [16]: 0.775
- glycan array binding signal (z-score) [17]: 0.411
- glycan array binding signal (z-score) [18]: -1.07
- glycan array binding signal (z-score) [19]: -0.577
- glycan array binding signal (z-score) [20]: -1.03
- glycan array binding signal (z-score) [21]: -0.411
- glycan array binding signal (z-score) [22]: -0.512

— the supplement of paper PMC8728848
